This is one part of the list.
Compound: c1cn2cc(-c3ccc4cn[nH]c4c3)nc(Nc3ccc(N4CCOCC4)cc3)c2n1 [entospletinib]
Test: log2 fold change, soluble protein after heating vs DMSO (PISA); higher = thermal stabilisation; K562 cells, 10 uM, 30 min; active = over 0.2 and 3.5 SD of the protein, either way, in both replicates (recomputed)
How it was run: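 Aliquots of K562 cells (2×10^6 cells/mL) treated with 10 μM compound for 30 min were heated for 3 min over 48°C-58°C. After pooling and extraction in PBS with 0.5% NP-40 at 4°C, soluble protein from a 21,000xg, 90 min spin was quantified by TMTpro 16plex LC-MS/MS with channel sums equalised. Thermal stability is expressed against control samples, from duplicates, as a log2 fold change.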

Amino acid sequences for entries named in this document (tags omitted). A change or cut given only in a name is not applied to a line headed by its entry.
UniProt Q96CD0: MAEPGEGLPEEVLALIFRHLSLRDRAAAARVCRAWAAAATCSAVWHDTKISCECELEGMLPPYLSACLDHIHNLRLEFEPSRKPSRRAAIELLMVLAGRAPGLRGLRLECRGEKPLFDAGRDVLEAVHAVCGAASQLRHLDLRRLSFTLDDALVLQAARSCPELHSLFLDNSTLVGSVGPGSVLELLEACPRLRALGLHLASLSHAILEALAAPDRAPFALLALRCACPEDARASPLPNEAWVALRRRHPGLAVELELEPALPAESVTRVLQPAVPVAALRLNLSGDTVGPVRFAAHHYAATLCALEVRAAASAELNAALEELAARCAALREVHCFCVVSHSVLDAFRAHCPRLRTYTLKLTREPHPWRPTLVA
UniProt A6NHQ2: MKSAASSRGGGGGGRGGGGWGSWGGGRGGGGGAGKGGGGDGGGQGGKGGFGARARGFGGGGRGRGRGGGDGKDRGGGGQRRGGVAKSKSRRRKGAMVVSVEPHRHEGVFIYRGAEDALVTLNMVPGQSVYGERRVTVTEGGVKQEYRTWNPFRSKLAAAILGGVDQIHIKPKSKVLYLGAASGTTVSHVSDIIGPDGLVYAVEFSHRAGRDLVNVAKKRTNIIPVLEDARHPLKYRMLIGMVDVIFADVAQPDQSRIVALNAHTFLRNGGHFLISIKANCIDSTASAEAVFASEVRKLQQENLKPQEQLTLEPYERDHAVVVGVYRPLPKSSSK
UniProt P02751, whole entry, looked up: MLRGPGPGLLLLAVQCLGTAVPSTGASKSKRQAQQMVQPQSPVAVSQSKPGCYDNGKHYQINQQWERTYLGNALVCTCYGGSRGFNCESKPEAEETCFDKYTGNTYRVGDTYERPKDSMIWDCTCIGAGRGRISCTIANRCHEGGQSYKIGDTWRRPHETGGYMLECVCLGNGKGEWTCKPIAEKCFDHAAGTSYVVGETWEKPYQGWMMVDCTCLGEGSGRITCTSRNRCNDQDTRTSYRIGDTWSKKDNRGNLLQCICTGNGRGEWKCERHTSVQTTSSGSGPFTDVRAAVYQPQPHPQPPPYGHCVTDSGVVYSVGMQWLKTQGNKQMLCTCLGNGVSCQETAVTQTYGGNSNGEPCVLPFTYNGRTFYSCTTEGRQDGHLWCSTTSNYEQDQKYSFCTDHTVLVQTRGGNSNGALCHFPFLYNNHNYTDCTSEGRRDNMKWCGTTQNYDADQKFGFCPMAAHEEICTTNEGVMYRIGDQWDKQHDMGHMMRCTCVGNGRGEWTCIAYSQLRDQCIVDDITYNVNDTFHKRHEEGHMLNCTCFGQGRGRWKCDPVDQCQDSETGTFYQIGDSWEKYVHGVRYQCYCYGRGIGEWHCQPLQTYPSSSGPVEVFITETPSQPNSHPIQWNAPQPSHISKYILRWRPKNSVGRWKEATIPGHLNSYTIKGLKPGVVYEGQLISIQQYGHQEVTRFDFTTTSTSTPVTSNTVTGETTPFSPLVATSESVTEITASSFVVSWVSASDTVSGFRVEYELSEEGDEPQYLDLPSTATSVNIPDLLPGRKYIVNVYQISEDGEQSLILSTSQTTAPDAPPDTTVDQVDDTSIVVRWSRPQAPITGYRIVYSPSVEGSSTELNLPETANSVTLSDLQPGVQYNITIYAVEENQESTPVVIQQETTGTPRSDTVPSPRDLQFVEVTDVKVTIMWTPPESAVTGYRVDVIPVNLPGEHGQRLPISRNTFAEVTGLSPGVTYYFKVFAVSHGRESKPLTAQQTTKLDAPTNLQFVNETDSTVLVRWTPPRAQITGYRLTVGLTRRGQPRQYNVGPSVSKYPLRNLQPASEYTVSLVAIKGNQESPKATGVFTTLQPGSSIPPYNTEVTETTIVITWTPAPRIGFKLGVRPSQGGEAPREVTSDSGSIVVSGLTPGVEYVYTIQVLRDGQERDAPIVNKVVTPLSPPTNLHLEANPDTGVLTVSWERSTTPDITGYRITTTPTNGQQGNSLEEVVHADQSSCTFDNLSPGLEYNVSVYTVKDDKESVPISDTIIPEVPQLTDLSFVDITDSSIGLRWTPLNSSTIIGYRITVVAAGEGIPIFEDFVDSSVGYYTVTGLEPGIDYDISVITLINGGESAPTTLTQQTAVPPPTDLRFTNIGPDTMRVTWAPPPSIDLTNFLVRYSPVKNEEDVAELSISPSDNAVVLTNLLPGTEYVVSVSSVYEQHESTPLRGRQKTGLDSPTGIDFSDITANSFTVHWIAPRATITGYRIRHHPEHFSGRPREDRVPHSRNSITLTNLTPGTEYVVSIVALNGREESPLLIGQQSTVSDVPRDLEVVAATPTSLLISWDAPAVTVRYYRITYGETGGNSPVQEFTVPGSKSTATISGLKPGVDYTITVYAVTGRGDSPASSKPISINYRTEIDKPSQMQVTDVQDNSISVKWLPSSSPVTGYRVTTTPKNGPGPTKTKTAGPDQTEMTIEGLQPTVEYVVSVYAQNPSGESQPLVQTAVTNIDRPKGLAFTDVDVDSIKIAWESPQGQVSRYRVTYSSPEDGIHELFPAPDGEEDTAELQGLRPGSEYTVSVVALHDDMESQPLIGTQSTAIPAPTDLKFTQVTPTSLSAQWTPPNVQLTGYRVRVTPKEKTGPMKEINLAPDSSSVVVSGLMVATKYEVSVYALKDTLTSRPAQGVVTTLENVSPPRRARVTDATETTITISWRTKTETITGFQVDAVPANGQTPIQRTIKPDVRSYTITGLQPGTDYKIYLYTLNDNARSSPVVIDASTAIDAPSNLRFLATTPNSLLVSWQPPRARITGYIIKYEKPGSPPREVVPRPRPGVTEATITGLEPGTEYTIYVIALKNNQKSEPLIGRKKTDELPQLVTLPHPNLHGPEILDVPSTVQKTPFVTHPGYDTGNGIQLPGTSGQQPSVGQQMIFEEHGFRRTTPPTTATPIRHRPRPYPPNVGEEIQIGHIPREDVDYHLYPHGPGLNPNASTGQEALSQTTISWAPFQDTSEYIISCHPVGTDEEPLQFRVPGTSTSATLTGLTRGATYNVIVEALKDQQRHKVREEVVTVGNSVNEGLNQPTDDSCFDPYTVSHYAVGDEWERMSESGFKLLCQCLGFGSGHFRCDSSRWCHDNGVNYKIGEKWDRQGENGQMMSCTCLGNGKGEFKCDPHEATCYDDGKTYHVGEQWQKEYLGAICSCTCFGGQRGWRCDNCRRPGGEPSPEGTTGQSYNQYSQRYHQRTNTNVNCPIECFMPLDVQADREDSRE
UniProt P17948, whole entry, looked up: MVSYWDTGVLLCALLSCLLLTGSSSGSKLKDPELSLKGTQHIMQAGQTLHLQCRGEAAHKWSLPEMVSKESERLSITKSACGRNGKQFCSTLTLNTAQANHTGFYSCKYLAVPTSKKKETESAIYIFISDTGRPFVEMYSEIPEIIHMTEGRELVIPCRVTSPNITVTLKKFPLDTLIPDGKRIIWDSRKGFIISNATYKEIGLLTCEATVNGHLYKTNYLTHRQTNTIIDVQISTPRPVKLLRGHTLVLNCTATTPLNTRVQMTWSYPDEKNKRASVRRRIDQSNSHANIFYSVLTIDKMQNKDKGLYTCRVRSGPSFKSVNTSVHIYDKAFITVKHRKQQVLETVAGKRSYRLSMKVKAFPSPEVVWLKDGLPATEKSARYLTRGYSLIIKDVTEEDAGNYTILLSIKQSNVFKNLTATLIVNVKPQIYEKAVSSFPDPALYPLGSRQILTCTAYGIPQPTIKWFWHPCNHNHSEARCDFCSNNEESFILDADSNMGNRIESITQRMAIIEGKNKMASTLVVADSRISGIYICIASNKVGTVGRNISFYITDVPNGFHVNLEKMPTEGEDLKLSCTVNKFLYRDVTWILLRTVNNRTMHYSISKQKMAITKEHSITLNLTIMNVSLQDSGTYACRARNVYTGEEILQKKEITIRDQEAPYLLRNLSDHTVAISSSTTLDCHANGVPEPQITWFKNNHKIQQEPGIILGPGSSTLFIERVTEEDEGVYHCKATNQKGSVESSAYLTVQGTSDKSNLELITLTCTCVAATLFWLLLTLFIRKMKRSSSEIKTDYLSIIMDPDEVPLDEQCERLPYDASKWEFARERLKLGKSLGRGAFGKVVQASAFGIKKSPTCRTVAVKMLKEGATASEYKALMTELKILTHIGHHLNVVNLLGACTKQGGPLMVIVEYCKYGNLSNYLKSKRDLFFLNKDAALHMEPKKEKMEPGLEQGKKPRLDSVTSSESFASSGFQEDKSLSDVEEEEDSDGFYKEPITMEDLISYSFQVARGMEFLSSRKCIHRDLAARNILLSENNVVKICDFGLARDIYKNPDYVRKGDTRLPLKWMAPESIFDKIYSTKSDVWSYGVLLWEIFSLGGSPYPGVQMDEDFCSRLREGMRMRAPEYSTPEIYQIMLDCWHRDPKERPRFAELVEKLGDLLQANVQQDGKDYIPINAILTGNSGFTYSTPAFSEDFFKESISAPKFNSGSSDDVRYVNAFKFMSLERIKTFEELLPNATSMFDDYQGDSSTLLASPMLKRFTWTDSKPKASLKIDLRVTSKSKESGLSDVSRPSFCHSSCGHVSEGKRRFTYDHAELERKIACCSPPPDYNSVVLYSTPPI
UniProt Q9Y2H6: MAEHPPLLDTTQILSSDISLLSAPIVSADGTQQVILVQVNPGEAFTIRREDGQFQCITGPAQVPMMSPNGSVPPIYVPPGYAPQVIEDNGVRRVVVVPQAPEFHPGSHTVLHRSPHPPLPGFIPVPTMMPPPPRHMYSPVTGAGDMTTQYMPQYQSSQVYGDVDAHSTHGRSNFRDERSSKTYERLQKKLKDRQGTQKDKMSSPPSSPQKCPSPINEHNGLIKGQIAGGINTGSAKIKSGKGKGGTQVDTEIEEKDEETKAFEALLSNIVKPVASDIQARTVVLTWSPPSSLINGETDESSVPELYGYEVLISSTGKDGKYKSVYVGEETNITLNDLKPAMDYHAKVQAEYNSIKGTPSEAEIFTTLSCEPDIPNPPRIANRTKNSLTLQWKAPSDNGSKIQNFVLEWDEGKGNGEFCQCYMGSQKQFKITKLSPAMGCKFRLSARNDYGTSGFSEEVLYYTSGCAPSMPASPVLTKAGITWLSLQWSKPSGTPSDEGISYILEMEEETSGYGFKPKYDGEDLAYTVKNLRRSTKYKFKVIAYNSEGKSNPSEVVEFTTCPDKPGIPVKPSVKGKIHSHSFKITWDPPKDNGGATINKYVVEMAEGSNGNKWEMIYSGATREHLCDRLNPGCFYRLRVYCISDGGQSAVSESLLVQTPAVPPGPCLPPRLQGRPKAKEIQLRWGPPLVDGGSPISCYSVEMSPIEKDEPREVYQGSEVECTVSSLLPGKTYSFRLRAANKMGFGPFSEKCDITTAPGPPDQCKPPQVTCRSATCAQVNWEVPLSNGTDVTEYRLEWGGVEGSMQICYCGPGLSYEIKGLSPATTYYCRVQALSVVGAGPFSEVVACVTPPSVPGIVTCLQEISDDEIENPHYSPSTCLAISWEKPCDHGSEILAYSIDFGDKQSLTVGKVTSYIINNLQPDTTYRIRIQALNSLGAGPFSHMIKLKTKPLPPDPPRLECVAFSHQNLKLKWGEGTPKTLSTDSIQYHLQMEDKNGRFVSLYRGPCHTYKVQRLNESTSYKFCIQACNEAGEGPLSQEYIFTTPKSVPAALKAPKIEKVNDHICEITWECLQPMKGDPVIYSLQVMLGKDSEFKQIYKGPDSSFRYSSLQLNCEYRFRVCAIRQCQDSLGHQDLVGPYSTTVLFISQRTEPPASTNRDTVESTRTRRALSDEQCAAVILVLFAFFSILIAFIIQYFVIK
UniProt Q9NYY8: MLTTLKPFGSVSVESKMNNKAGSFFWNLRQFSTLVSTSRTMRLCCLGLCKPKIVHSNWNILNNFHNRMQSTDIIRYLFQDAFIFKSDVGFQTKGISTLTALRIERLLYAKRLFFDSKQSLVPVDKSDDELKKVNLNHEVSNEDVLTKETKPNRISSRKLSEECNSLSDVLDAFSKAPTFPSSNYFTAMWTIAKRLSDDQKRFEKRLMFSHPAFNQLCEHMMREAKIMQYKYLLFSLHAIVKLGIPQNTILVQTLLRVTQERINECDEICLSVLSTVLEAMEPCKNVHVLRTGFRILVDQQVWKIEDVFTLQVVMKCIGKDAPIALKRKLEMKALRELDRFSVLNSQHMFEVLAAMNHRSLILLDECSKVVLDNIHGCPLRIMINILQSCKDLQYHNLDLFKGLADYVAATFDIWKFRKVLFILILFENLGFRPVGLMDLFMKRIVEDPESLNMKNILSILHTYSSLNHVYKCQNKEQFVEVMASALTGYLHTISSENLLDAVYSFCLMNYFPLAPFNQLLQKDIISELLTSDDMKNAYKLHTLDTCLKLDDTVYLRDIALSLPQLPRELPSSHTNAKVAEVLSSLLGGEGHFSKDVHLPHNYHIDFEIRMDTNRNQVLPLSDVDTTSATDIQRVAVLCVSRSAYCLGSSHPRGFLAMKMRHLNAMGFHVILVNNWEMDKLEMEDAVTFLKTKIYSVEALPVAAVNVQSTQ
UniProt P26885: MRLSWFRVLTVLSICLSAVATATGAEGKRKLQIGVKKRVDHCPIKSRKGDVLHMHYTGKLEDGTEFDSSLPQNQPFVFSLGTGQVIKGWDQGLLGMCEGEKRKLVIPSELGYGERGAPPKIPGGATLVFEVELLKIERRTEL

log2 fold change, inactive:
FEM1B (UniProt Q9UK73) -0.057
FBXL20 (UniProt Q96IG2) -0.029
FCGR2A (UniProt P12318) 0.145
FARSA (UniProt Q9Y285) 0.007
FBXO5 (UniProt Q9UKT4) -0.025
FAM76B (UniProt Q5HYJ3) 0.068
FN3K (UniProt Q9H479) 0.001
FBXL8 (UniProt Q96CD0) 0.016
FKBP5 (UniProt Q13451) 0.081
FIP1L1 (UniProt Q6UN15) 0.066
FBLL1 (UniProt A6NHQ2) -0.005
FLII (UniProt Q13045) -0.005
FN1 isoform 1 (UniProt P02751) 0.171
FAM222B (UniProt Q8WU58) 0.029
FAM210A (UniProt Q96ND0) 0.039
FLT1 (UniProt P17948) 0.088
FNDC3A (UniProt Q9Y2H6) -0.091
FER (UniProt P16591) 0.465
FCGR2C (UniProt P31995) 0.03
FAM53B (UniProt Q14153) 0.08
FASTKD2 (UniProt Q9NYY8) -0.019
FLT4 (UniProt P35916) -0.058
FAM219A (UniProt Q8IW50) 0.008
FLOT2 (UniProt Q14254) 0.113
FNBP4 isoform 2 (UniProt Q8N3X1) 0.011
FAM89A (UniProt Q96GI7) 0.019
FKBP2 (UniProt P26885) 0.021
